Laboratory results from paper PMC4203353.
Results are given in words; binding and its absence hold for the method and conditions named. Binding seen in cells or lysates may run through a third protein. Some results given as binding are weak or reduced against the parent protein; the word gives no strength.

Protein sequences, listed by entry. Tags and fused reporters are not part of them.
UniProt Q80UE6: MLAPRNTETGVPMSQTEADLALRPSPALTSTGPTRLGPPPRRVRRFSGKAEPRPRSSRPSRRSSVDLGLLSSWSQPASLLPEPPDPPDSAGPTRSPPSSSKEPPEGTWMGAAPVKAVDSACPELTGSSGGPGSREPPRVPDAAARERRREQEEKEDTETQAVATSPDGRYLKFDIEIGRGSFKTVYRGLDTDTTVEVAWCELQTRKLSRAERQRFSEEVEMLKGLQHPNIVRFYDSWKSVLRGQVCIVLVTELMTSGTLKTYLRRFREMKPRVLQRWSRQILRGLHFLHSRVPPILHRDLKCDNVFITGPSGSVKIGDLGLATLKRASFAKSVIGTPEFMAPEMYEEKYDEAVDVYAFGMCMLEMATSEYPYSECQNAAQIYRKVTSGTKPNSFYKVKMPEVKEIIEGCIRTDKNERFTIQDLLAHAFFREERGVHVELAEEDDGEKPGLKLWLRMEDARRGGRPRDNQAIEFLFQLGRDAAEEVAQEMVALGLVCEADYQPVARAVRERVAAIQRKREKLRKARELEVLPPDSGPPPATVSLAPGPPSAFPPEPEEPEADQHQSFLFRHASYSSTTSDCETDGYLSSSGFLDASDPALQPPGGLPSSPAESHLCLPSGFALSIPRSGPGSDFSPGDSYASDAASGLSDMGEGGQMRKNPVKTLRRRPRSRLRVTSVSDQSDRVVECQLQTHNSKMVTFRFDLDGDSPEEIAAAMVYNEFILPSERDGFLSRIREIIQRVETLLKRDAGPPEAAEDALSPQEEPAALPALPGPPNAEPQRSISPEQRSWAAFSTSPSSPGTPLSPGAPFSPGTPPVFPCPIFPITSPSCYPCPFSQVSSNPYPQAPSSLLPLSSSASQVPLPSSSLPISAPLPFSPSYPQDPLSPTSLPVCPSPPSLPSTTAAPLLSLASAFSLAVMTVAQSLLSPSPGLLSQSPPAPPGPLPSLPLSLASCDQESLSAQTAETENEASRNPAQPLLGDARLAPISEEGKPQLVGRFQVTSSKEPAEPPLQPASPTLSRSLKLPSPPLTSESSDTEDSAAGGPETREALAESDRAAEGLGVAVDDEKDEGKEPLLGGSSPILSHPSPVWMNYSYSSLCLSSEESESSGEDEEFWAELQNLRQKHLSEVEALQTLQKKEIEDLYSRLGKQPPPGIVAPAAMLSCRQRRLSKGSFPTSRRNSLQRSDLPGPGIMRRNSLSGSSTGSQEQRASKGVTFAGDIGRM

Target: with-no lysine kinase-4 (WNK4) (mouse (endogenous in kidney cortex)) (UniProt Q80UE6)
Assay: co-IP; kidney cortex homogenate (1 mg protein) of 3-month-old wild-type mice treated for 5 days with vehicle or rFGF23; reciprocal IP with anti-WNK4 or anti-NCC antibody at 4°C overnight, Protein A or G beads, four washes in PBS; Western blot with anti-NCC or anti-WNK4

B1: Na+:Cl- co-transporter NCC (protein, UniProt P59158 1-1002)
chain: MAELPVTELPGDALCSGRFTISTLMGGDEPPPAACDSSQPSHLTHGSTLYMRTFGYNTIDVVPAYEHYANSALPGEPRKVRPTLADLHSFLKQEGSHLHALAFDGRQGRELTDGLVEDETGTNSEKSPGEPVRFGWVKGVMIRCMLNIWGVILYLRLPWITAQAGIVLTWLIILLSVMVTSITGLSISAISTNGKVKSGGTYFLISRSLGPELGGSIGLIFAFANAVGVAMHTVGFAETVRDLLQEYGTPIVDPINDIRIIGVVTVTVLLAISLAGMEWESKAQVLFFLVIMVSFANYLVGTLIPASEDKASKGFYSYHGDIFVQNLVPDWRGIDGSFFGMFSIFFPSATGILAGANISGDLKDPAVAIPKGTLMAIFWTTISYLAISATIGSCVVRDASGDVNDTMTPGPGPCEGLACGYGWNFTECSQQRSCRYGLINYYQTMSMVSAFAPLITAGIFGATLSSALACLVSAAKVFQCLCEDQLYPLIGFFGKGYGKNREPVRGYLLAYAIAVAFIIIAELNTIAPIISNFFLCSYALINFSCFHASITNSPGWRPSFRYYSKWAALFGAVISVVIMFLLTWWAALIAIGVVLFLLLYVIYKKPEVNWGSSVQAGSYNLALSYSVGLNEVEDHIKNYRPQCLVLTGPPNFRPALVDFVSTFTQNLSLMICGHVLIGPGKQRVPELRLIASGHTKWLNKRKIKAFYSDVIAEDLRSGVQILMQASGLGRMKPNILVVGFKRNWQSAHPATVEDYIGVLHDAFDFNYGVCVMRMREGLNVSEALQTHTTPEALIQEEQASTIFQSEQGKKTIDIYWLFDDGGLTLLIPYLLHRKKRWGKCKIRVFVGGQINRMDEERKAIISLLSKFRLGFHEVHVLPDINQKPQAEHTKRFEDMIAPFRLNDGFKDEATVTEMRRDCPWKISDEEINKNRIKSLRQVRLSEILLDYSRDAALIILTLPIGRKGKCPSSLYMAWLETLSQDLRPPVLLIRGNQENVLTFYCQ
- binding: binds
